Measurements reported in PMC5800574.
Results are given in words; binding and its absence hold for the method and conditions named. In cells and extracts the contact can be indirect. Binding can be weak; no strength is given. Tags and fused reporters may be left off the sequences shown.

Molecular target: T1, Axin-V5 (Drosophila) (UniProt Q9V407)
T1 sequence: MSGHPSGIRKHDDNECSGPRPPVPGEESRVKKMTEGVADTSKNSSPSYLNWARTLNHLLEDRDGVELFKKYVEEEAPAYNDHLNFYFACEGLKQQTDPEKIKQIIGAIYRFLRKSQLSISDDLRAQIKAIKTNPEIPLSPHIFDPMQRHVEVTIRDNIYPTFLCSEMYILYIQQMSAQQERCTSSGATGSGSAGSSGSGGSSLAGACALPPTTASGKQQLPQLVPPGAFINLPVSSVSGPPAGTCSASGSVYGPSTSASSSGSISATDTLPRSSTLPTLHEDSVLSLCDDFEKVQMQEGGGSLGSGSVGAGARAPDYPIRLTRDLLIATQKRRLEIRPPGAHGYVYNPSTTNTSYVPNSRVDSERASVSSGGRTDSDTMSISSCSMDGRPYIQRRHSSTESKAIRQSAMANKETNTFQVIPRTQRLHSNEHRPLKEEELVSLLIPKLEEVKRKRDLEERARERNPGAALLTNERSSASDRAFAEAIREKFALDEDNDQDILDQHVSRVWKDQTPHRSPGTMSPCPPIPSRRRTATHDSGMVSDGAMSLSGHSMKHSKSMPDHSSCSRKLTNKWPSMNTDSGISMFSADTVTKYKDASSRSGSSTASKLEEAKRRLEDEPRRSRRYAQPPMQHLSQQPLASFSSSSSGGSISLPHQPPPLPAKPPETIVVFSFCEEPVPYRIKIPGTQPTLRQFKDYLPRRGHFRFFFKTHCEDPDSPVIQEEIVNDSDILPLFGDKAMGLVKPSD
Assay: co-IP; S2R+ cells transfected with Axin-V5 or AxinΔRGS-V5, treated 48 hours later with Wg CM for one hour; lysates (50mM Tris-HCl pH 8.0, 100mM NaCl, 1% NP-40, 10% glycerol, 1.5mM EDTA, 1uM ADP-HPD) with anti-V5 antibody overnight at 4°C, protein A/G-sepharose beads; immunoblot

Apc (Drosophila (endogenous in S2R+))
binding: binds
